From PMC3056803
Results are given in words; binding and its absence hold for the method and conditions named. Some results given as binding are weak or reduced against the parent protein; the word gives no strength.

Sequences of proteins named here, by UniProt entry; tags and fusion partners are left off.
UniProt P17676: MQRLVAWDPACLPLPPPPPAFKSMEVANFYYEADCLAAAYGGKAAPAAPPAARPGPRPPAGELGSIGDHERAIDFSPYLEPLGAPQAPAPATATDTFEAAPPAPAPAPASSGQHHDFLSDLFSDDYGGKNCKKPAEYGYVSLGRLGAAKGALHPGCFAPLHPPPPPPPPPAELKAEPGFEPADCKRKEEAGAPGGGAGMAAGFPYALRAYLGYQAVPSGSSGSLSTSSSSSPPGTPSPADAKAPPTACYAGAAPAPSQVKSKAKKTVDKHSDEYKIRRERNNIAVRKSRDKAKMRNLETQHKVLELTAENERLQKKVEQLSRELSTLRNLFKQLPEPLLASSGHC
UniProt P49715: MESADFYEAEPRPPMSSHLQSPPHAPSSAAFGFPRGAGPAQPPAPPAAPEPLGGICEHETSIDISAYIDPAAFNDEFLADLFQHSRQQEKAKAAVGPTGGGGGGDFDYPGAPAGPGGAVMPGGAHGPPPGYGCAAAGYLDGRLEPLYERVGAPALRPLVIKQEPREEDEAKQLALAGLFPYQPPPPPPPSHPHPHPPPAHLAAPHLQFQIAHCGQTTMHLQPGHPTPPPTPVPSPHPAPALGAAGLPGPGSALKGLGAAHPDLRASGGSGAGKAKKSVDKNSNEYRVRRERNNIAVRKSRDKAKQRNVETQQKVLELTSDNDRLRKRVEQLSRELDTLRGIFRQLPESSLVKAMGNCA

Assays:
[1] = target: C/EBPβ (endogenous, U937) (human (endogenous in U937)) (UniProt P17676); assay: re-ChIP (sequential chromatin immunoprecipitation); U937 cells with or without 2.5 ng/ml TGFβ1 for 1.5 hrs, cross-linked; first immunoprecipitation with C/EBPβ antibody, release in 1% SDS, 10 mM DTT, second immunoprecipitation with C/EBPα or C/EBPβ antibody; quantitative PCR of the MAD1 promoter (primer set P)
C/EBPβ = C/EBPβ (UniProt P17676); assay: native gel or EMSA; whole cell extracts of HEK293 cells overexpressing C/EBPα and C/EBPβ incubated with 32P-labelled CCAAT box1 oligonucleotide of the MAD1 promoter, 30°C 30 min; supershift with C/EBPα- or C/EBPβ-specific antibody; the heterodimer is seen on DNA

Substance	binding [1]	binding (C/EBPβ)
C/EBPα (endogenous, U937) (from UniProt P49715 1-358)	binds	
C/EBPα (from UniProt P49715 1-358)		binds
